No constants are given. Whether binding was seen depends on the method and setting. Some binding calls cover weakened binding; strength is not graded here.
What was measured:
[1] = biological target: T1, microtubule polymers (polymerized tubulin) (bovine) (UniProt P81947+Q6B856); assay: microtubule co-sedimentation, PC3:mCh-tub cell lysate, immunoblot
[2] = biological target: T1, microtubule polymers (polymerized tubulin) (bovine); assay: microtubule co-sedimentation, HEK293 cell lysate, immunoblot
[3] = biological target: T1, microtubule polymers (polymerized tubulin) (bovine); assay: microtubule co-sedimentation, cell lysate; positive control

Protein sequences, listed by entry. Tags and fused reporters are not part of them. Lines headed by an entry give the natural chain unless they say otherwise; changes in a name come on top.
UniProt P81947: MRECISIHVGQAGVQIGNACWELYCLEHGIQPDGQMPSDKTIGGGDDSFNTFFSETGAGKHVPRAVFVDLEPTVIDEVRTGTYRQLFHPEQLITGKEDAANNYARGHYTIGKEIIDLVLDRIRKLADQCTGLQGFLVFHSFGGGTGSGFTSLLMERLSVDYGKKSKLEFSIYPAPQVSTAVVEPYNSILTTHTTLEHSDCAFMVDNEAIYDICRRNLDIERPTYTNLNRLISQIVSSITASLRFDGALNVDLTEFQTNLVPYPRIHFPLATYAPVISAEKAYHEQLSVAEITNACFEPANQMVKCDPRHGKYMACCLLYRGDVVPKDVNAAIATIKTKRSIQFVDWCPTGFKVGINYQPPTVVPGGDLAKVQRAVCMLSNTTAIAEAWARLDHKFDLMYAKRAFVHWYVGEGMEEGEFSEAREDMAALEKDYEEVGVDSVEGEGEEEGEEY
UniProt Q6B856: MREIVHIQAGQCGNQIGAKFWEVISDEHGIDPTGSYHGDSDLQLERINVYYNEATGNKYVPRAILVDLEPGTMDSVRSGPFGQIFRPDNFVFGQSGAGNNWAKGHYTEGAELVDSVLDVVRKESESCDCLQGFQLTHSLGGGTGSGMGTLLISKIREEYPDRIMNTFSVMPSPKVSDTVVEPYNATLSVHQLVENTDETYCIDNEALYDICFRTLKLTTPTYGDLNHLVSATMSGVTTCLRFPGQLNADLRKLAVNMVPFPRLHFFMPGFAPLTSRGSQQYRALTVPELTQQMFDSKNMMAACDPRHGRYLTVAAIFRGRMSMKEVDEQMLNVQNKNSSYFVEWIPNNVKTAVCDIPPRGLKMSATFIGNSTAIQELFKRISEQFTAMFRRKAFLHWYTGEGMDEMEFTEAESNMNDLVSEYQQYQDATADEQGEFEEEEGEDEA
UniProt O97775: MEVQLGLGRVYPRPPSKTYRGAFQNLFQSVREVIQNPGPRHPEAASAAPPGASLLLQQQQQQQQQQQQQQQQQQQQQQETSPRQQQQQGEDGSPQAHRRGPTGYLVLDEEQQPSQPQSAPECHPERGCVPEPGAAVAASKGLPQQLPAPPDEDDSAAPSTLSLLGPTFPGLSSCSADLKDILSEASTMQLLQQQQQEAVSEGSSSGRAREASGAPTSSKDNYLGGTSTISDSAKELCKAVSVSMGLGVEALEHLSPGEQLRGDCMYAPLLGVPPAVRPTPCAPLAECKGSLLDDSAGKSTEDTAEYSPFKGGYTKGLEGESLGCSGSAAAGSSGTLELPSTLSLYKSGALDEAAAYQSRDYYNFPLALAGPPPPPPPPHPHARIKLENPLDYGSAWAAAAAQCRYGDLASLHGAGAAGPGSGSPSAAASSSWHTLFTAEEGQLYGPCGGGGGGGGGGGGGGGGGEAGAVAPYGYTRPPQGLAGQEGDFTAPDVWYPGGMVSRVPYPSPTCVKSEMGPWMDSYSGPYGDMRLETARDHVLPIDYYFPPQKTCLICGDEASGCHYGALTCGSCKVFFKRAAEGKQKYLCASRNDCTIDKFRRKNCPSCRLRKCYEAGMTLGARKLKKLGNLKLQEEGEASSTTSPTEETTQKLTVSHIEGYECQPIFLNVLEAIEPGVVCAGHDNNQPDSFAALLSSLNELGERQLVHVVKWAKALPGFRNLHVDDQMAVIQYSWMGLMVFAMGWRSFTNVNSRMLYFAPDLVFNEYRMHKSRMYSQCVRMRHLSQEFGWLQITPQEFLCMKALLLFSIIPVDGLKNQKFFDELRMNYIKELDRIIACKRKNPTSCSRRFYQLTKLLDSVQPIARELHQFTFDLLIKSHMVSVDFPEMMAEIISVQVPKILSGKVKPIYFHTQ
UniProt P10275: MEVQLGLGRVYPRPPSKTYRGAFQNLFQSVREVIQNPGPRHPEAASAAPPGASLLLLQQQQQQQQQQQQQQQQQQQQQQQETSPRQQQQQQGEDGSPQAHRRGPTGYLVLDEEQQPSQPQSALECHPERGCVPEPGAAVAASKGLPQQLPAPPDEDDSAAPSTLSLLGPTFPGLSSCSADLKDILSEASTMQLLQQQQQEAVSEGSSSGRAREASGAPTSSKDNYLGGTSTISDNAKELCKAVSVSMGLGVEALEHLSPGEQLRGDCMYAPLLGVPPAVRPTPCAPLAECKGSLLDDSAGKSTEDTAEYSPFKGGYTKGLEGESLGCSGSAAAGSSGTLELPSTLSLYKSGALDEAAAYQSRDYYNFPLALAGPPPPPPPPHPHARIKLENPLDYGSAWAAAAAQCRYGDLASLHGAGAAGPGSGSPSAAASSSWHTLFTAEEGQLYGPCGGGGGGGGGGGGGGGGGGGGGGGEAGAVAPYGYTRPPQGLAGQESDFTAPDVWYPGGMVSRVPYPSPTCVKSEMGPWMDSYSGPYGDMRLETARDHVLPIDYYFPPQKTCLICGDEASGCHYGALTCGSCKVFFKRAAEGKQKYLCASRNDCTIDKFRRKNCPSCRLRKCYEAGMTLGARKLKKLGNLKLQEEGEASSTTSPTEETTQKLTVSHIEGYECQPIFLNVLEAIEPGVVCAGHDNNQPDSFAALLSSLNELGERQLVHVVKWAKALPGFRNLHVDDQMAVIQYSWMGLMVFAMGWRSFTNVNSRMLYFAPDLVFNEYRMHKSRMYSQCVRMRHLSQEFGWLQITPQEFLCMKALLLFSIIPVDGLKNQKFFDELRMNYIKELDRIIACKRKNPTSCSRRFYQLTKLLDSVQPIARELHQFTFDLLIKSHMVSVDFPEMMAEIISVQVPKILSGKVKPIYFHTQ

binding [1] | binding [2] | binding [3] | Substance
binds | binds |  | GFP-tagged C-terminal domain of the androgen receptor (amino acids 540-919) (from UniProt O97775 532-911)
binds | binds | binds | GFP-tagged full-length wild-type human androgen receptor (from UniProt P10275 1-920)
binds |  |  | HA-tagged androgen receptor splice variant v5,6,7 (from UniProt P10275 1-724)

— patent US20150233927A1
